Values of other authors as cited in patent US20050119284A1, “ANTIVIRAL AGENTS AND METHODS OF USE” (priority 2003, published 2005).
For at least one compound, name, drawing or mass did not settle the structure.

Test system: HCV 1 bN replicon
Details: two recent studies; cited from earlier work

## COc1c(C)c2c(c(O)c1C/C=C(\C)CCC(=O)O)C(=O)OC2 [MPA, mycophenolate]
  Antiviral (Hepatitis GB) or anti-HCV replicon activity: none
